Taken from: PubChem BioAssay AID686943 (Drosophila RNAi Screening Center, 2013)
The screen tested about 23,000 reagents; this is an unselected part of those with a known target gene and a result. 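Extra replicates exist only for a retested subset of genes; insulin dose and duration not given; both raised and lowered dpERK matter.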 Names joined by + are all predicted targets of the reagent. No sequences are given here. The record does not give: the amount of reagent, the time to read-out.

- Assay: 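Fly genes whose loss alters ERK activation after insulin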 (primary screen)
- Cell system: Drosophila S2R+ haemocyte-like cells expressing YFP-tagged ERK (Rolled)
- Reagent: long dsRNA against Drosophila genes
- Challenge: insulin stimulation versus unstimulated cells; dose and duration not given
- Measured: 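Per-plate z-scores of phospho-ERK immunostaining normalised to YFP-tagged ERK, measured with and without insulin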
- Reading the numbers: replicate 1, z-score of dpERK with insulin and replicate 2, z-score of dpERK with insulin: higher = more active ERK per ERK-YFP after insulin; replicate 1, z-score of dpERK under basal conditions: higher = more basal active ERK per ERK-YFP; replicate 1, z-score of ERK-YFP with insulin: higher = more YFP-tagged ERK signal

| gene | amplicon | replicate 1, z-score of dpERK with insulin | replicate 2, z-score of dpERK with insulin | replicate 1, z-score of dpERK under basal conditions | replicate 1, z-score of ERK-YFP with insulin |
| --- | --- | --- | --- | --- | --- |
| CG6688 | DRSC16094 | 0.06 | -0.3 | 0.31 | 0.26 |
| JhI-21 | DRSC02161 | 0.57 | 0.04 | 0.25 | 0.2 |
| CG2182 | DRSC12308 | -0.11 | -0.35 | -0.88 | 0.35 |
| Klp64D | DRSC11204 | 0.54 | 0.17 | 2.26 | -0.06 |
| Galphai | DRSC11168 | -0.73 | 0.35 | 0.72 | -0.07 |
| CG10510 | DRSC11614 | -0.04 | -0.43 | 2.32 | -0.89 |
| CG33981 + fab1 | DRSC07412 | 1.09 | 0.01 | -1.69 | -0.38 |
| cbt | DRSC00655 | 0.34 | 0.12 | -0.27 | -0.81 |
| CG31088 | DRSC13123 | 0.47 | 0.44 | 0.02 | 0.08 |
| CG3014 | DRSC15458 | -0.02 | -0.23 | 0.25 | -0.2 |
| CG9630 | DRSC16527 | 0.36 | 0.38 | -0.47 | -3.05 |
| CG34427 | DRSC09978 | 0.16 | 0.65 | 1.94 | 0.42 |
| bib | DRSC03496 | 0.07 | 0.52 | 2.21 | -0.2 |
| IntS11 | DRSC15407 | 0.47 | -0.09 | -0.36 | -1.19 |
| CG9395 | DRSC03218 | 1.37 | 1.82 | 0.36 | 0.62 |
| CG13437 | DRSC06397 | 0.1 | -0.81 | -0.28 | -0.01 |
| CG15446 | DRSC20518 | 0.09 | 0.85 | -0.08 | 0.13 |
| Cpr76Bc | DRSC11062 | 0.17 | -0.32 | -0.1 | 0.16 |
| Cse1 | DRSC03287 | -2.53 | -2.36 | -2.72 | 0.38 |
| CG8778 | DRSC07264 | 0.38 | -0.31 | 0.22 | -0.23 |
| BobA | DRSC09889 | 0.17 | -0.2 | -0.08 | 0.15 |
| slpr | DRSC18225 | 0.88 | 0.54 | 0.22 | -0.26 |
| chico | DRSC03531 | 2.28 | 2.93 | -0.82 | -0.45 |

Reformatted: 2 of the entries above.
Klp64D [DRSC11204] | replicate 1, z-score of dpERK with insulin = 0.54; replicate 2, z-score of dpERK with insulin = 0.17; replicate 1, z-score of dpERK under basal conditions = 2.26; replicate 1, z-score of ERK-YFP with insulin = -0.06
Galphai [DRSC11168] | replicate 1, z-score of dpERK with insulin = -0.73; replicate 2, z-score of dpERK with insulin = 0.35; replicate 1, z-score of dpERK under basal conditions = 0.72; replicate 1, z-score of ERK-YFP with insulin = -0.07
